# Experimental data: PubChem BioAssay AID1259254 (NCATS, 2017)
# Test: 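Genome-wide screen for genes that prevent DNA re-replication in cancer cells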 (primary screen)
# Cell system: human HCT116 colorectal cancer cells
# Reagents: single siRNA against human genes
# Duration: 3 days
# Detection: 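Nuclei stained with Hoechst and imaged; cell-cycle phase assigned by DNA content; G2 share scaled per plate, non-targeting siRNA 0%, GMNN siRNA 100%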
# Direction: G2 robust z-score and G2 cells, % of GMNN control: higher = more G2 cells, more excess DNA replication; raw share of cells in G2: higher = larger share of cells with G2 DNA content
# Hit rule: 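An siRNA counts as active if its G2 robust z-score lies at least 5 MADs above the screen median; here such calls match roughly 38% of GMNN control or more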
# Here is a random part of about 59,000 deposited reagents. In the full data, about 1,550 (2.6%) are marked active. 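G2 share is only a proxy for re-replication; each gene was hit by three separate siRNAs, and active genes were retested.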 Raw values are not corrected between plates. Entries without a mark were called inactive. The numbers tell different reagents against one gene apart. Not stated in the record: the amount of reagent.
gene knocked down,reagent,G2 robust z-score,"G2 cells, % of GMNN control",raw share of cells in G2 (%)
ZNF621 (zinc finger protein 621),1,-0.623,-1.41,2.6
ZNF621 (zinc finger protein 621),2,-0.171,1.76,3.78
ZNF621 (zinc finger protein 621),3,1.87,16.1,9.18
CRYZ (crystallin zeta),1,2.88,23.2,12.1
CRYZ (crystallin zeta),2,-0.84,-2.94,3.92
CRYZ (crystallin zeta),3,-0.446,-0.167,4.9
GCK (glucokinase),1,-0.523,-0.711,5.37
GCK (glucokinase),2,0.535,6.73,7.68
GCK (glucokinase),3,-0.759,-2.37,3.19
FBXL5 (F-box and leucine rich repeat protein 5),1,-1.31,-6.24,2.07
FBXL5 (F-box and leucine rich repeat protein 5),2,-0.754,-2.34,2.93
FBXL5 (F-box and leucine rich repeat protein 5),3,-0.032,2.74,4.26
ACSS1 (acyl-CoA synthetase short chain family member 1),1,1.68,14.8,11.6
ACSS1 (acyl-CoA synthetase short chain family member 1),2,2.31,19.2,11.2
ACSS1 (acyl-CoA synthetase short chain family member 1),3,-0.174,1.74,5.43
BMP2K (BMP2 inducible kinase),1,0.0598,3.39,6.64
BMP2K (BMP2 inducible kinase),2,-0.122,2.11,5.96
BMP2K (BMP2 inducible kinase),3,-0.0191,2.83,4.59
LOC105372990,1,2.06,17.5,9.71
LOC105372990,2,-0.887,-3.27,2.01
LOC105372990,3,0.682,7.76,6.7
WWOX (WW domain containing oxidoreductase),1,-0.429,-0.0521,4.22
WWOX (WW domain containing oxidoreductase),2,1.95,16.7,13.5
WWOX (WW domain containing oxidoreductase),3,-0.717,-2.08,3
OR51E2 (olfactory receptor family 51 subfamily E member 2),1,-0.236,1.31,4.99
OR51E2 (olfactory receptor family 51 subfamily E member 2),2,0.619,7.32,7.51
OR51E2 (olfactory receptor family 51 subfamily E member 2),3,-0.933,-3.6,1.39
FER (FER tyrosine kinase),1,0.928,9.5,8.74
FER (FER tyrosine kinase),2,-0.929,-3.57,4.21
FER (FER tyrosine kinase),3,-0.61,-1.32,3.56
HABP2 (hyaluronan binding protein 2),1,-1.39,-6.81,3.18
HABP2 (hyaluronan binding protein 2),2,0.317,5.2,6.75
HABP2 (hyaluronan binding protein 2),3,-0.00771,2.91,5
"GIMAP2 (GTPase, IMAP family member 2)",1,2.22,18.6,11.4
"GIMAP2 (GTPase, IMAP family member 2)",2,1.27,11.9,9.1
"GIMAP2 (GTPase, IMAP family member 2)",3,1.1,10.7,7.05
SF3A2P1 (SF3A2 pseudogene 1),1,-0.495,-0.516,3.03
SF3A2P1 (SF3A2 pseudogene 1),2,0.0602,3.39,4.12
SF3A2P1 (SF3A2 pseudogene 1),3,0.219,4.51,5.48
GMPPB (GDP-mannose pyrophosphorylase B),1,1.68,14.8,12.9
GMPPB (GDP-mannose pyrophosphorylase B),2,0.907,9.35,7.29
GMPPB (GDP-mannose pyrophosphorylase B),3,-0.867,-3.13,2.96
RFC1 (replication factor C subunit 1),1,2.98,23.9,13.2
RFC1 (replication factor C subunit 1),2,-0.142,1.97,4.8
RFC1 (replication factor C subunit 1),3,-0.495,-0.516,4.48

The list goes on, starting with the last 9 of the part before.
gene knocked down,reagent,G2 robust z-score,"G2 cells, % of GMNN control",raw share of cells in G2 (%)
SF3A2P1 (SF3A2 pseudogene 1),1,-0.495,-0.516,3.03
SF3A2P1 (SF3A2 pseudogene 1),2,0.0602,3.39,4.12
SF3A2P1 (SF3A2 pseudogene 1),3,0.219,4.51,5.48
GMPPB (GDP-mannose pyrophosphorylase B),1,1.68,14.8,12.9
GMPPB (GDP-mannose pyrophosphorylase B),2,0.907,9.35,7.29
GMPPB (GDP-mannose pyrophosphorylase B),3,-0.867,-3.13,2.96
RFC1 (replication factor C subunit 1),1,2.98,23.9,13.2
RFC1 (replication factor C subunit 1),2,-0.142,1.97,4.8
RFC1 (replication factor C subunit 1),3,-0.495,-0.516,4.48
UTP18 (UTP18 small subunit processome component),1,8.05 (active),59.6,26.6
UTP18 (UTP18 small subunit processome component),2,3.59,28.3,15.2
UTP18 (UTP18 small subunit processome component),3,5.96 (active),44.9,17.4
ERICH5 (glutamate rich 5),1,0.186,4.28,5.13
ERICH5 (glutamate rich 5),2,-1,-4.07,1.74
ERICH5 (glutamate rich 5),3,0.2,4.38,4.59
CIP2A (cellular inhibitor of PP2A),1,-0.855,-3.05,3.14
CIP2A (cellular inhibitor of PP2A),2,2.03,17.2,12.7
CIP2A (cellular inhibitor of PP2A),3,-0.438,-0.112,2.99
MRPL50 (mitochondrial ribosomal protein L50),1,-0.912,-3.45,2.05
MRPL50 (mitochondrial ribosomal protein L50),2,0.993,9.95,7.17
MRPL50 (mitochondrial ribosomal protein L50),3,0.932,9.52,8.28
CAP2 (cyclase associated actin cytoskeleton regulatory protein 2),1,-0.292,0.915,5.74
CAP2 (cyclase associated actin cytoskeleton regulatory protein 2),2,-1.03,-4.26,2.17
CAP2 (cyclase associated actin cytoskeleton regulatory protein 2),3,3.19,25.4,12.6
TMEM108 (transmembrane protein 108),1,1.91,16.4,11.7
TMEM108 (transmembrane protein 108),2,0.87,9.09,8.68
TMEM108 (transmembrane protein 108),3,1.35,12.5,5.99
ATXN7 (ataxin 7),1,-0.174,1.74,5.71
ATXN7 (ataxin 7),2,-0.723,-2.12,3.38
ATXN7 (ataxin 7),3,-0.784,-2.55,2.43
CLDN25 (claudin 25),1,0.164,4.12,5.21
CLDN25 (claudin 25),2,2.64,21.5,11
CLDN25 (claudin 25),3,0.593,7.14,5.23
KMT5B (lysine methyltransferase 5B),1,-0.905,-3.4,2.56
KMT5B (lysine methyltransferase 5B),2,-0.648,-1.59,3.95
KMT5B (lysine methyltransferase 5B),3,0.458,6.19,5.2
PRKAR1B (protein kinase cAMP-dependent type I regulatory subunit beta),1,-0.572,-1.06,4.28
PRKAR1B (protein kinase cAMP-dependent type I regulatory subunit beta),2,0.237,4.64,5.69
PRKAR1B (protein kinase cAMP-dependent type I regulatory subunit beta),3,-0.951,-3.72,3.7
ZNF197 (zinc finger protein 197),1,-0.981,-3.94,2.22
ZNF197 (zinc finger protein 197),2,-0.939,-3.64,4.37
ZNF197 (zinc finger protein 197),3,-0.342,0.562,3.57
NCOR1 (nuclear receptor corepressor 1),1,2.32,19.3,12.5
NCOR1 (nuclear receptor corepressor 1),2,3,24.1,14.5
NCOR1 (nuclear receptor corepressor 1),3,-0.0416,2.67,4.11
"NAA40 (N-alpha-acetyltransferase 40, NatD catalytic subunit)",1,2.51,20.6,14
"NAA40 (N-alpha-acetyltransferase 40, NatD catalytic subunit)",2,-0.674,-1.77,4.13
"NAA40 (N-alpha-acetyltransferase 40, NatD catalytic subunit)",3,9.09 (active),66.9,28.4
JPH3 (junctophilin 3),1,0.382,5.65,6.57
JPH3 (junctophilin 3),2,1.01,10,9.26
JPH3 (junctophilin 3),3,1.88,16.2,8.15
